According to patent US11541107B2, “Peptides and T cells for use in immunotherapeutic treatment of various cancers” (Immatics Biotechnologies GmbH, priority 2015, dated 2023):
For expression read-outs the peptide stands for its source gene, whose mRNA was measured; the gene is not named for every peptide.

Test system: source genes of the peptides
Test: Target coverage of source genes based on TCGA Research Network expression data
Parameters: species or system human
Details: for Target coverage, over-expression category of source gene, STAD (N = 415): Stomach adenocarcinoma; for Target coverage, over-expression category of source gene, TGCT (N = 156): Testicular germ cell tumors; for Target coverage, over-expression category of source gene, THYM (N = 120): Thymoma; for Target coverage, over-expression category of source gene, UCS (N = 57): Uterine carcinosarcoma; for Target coverage, over-expression category of source gene, STAD: Stomach adenocarcinoma (N = 415); for Target coverage, over-expression category of source gene, SARC (N = 263): Sarcoma; for Target coverage, over-expression category of source gene, UVM (N = 80): Uveal melanoma; for Target coverage, over-expression category of source gene, SARC: Sarcoma (N = 263); for Target coverage, over-expression category of source gene, SKCM: Skin cutaneous melanoma (N = 473); for Target coverage, over-expression category of source gene, TGCT: Testicular germ cell tumors (N = 156); for Target coverage, over-expression category of source gene, UCS: Uterine carcinosarcoma (N = 57); for Target coverage, over-expression category of source gene, UCEC (N = 546): Uterine corpus endometrial carcinoma; for Target coverage, over-expression category of source gene, THCA (N = 513): Thyroid carcinoma; for Target coverage, over-expression category of source gene, UVM: Uveal melanoma (N = 80)
[1] = cutoff more than 2-fold above highest 75% percentile of normal organs

106: peptide found in KIFC1 (gene looked up) (IYNETVRDLL; listed as Homo sapiens) [compound 106]
Target coverage, over-expression category of source gene, STAD (N = 415) [1]: C (>=5% of tumors above the cutoff, but <20%) | Target coverage, over-expression category of source gene, TGCT (N = 156) [1]: A (>=50% of tumors above the cutoff) | Target coverage, over-expression category of source gene, THYM (N = 120) [1]: A (>=50% of tumors above the cutoff) | Target coverage, over-expression category of source gene, UCS (N = 57) [1]: A (>=50% of tumors above the cutoff)

363: peptide found in SLC7A11 (gene looked up) (SYAELGTTI; listed as Homo sapiens) [compound 363]
Target coverage, over-expression category of source gene, STAD: C (>=5% of tumors above the cutoff, but <20%)

345: peptide found in BUB1 (gene looked up) (EYNSDLHQFF; listed as Homo sapiens) [compound 345]
Target coverage, over-expression category of source gene, STAD (N = 415) [1]: A (>=50% of tumors above the cutoff) | Target coverage, over-expression category of source gene, TGCT (N = 156) [1]: A (>=50% of tumors above the cutoff) | Target coverage, over-expression category of source gene, UCS (N = 57) [1]: A (>=50% of tumors above the cutoff)

124: peptide found in PRKDC (gene looked up) (TYKDYVDLF; listed as Homo sapiens) [compound 124]
Target coverage, over-expression category of source gene, SARC (N = 263) [1]: C (>=5% of tumors above the cutoff, but <20%) | Target coverage, over-expression category of source gene, SKCM (N = 473) (Skin cutaneous melanoma, cutoff more than 2-fold above highest 75% percentile of normal organs): C (>=5% of tumors above the cutoff, but <20%) | Target coverage, over-expression category of source gene, UVM (N = 80) [1]: C (>=5% of tumors above the cutoff, but <20%)

220: peptide found in DCLRE1C (gene looked up) (SYSEIKDFL; listed as Homo sapiens) [compound 220]
Target coverage, over-expression category of source gene, STAD (N = 415) [1]: C (>=5% of tumors above the cutoff, but <20%)

394: peptide found in FANCI (gene looked up) (FYQPKIQQF; listed as Homo sapiens) [compound 394]
Target coverage, over-expression category of source gene, SARC: B (>=20% of tumors above the cutoff, but <50%) | Target coverage, over-expression category of source gene, SKCM: B (>=20% of tumors above the cutoff, but <50%) | Target coverage, over-expression category of source gene, STAD: B (>=20% of tumors above the cutoff, but <50%) | Target coverage, over-expression category of source gene, TGCT: A (>=50% of tumors above the cutoff) | Target coverage, over-expression category of source gene, THYM (Thymoma (N = 120)): A (>=50% of tumors above the cutoff) | Target coverage, over-expression category of source gene, UCS: B (>=20% of tumors above the cutoff, but <50%) | Target coverage, over-expression category of source gene, UCEC (Uterine corpus endometrial carcinoma (N = 546)): B (>=20% of tumors above the cutoff, but <50%)

173: peptide found in MMP10 (gene looked up) (QYLEKYYNL; listed as Homo sapiens) [compound 173]
Target coverage, over-expression category of source gene, PRAD (N = 498) (Prostate adenocarcinoma, cutoff more than 2-fold above highest 75% percentile of normal organs): C (>=5% of tumors above the cutoff, but <20%) | Target coverage, over-expression category of source gene, UCS (N = 57) [1]: C (>=5% of tumors above the cutoff, but <20%) | Target coverage, over-expression category of source gene, UCEC (N = 546) [1]: C (>=5% of tumors above the cutoff, but <20%)

253: peptide found in NPFFR2 (gene looked up) (IYGFFNENF; listed as Homo sapiens) [compound 253]
Target coverage, over-expression category of source gene, SARC (N = 263) [1]: C (>=5% of tumors above the cutoff, but <20%) | Target coverage, over-expression category of source gene, TGCT (N = 156) [1]: C (>=5% of tumors above the cutoff, but <20%) | Target coverage, over-expression category of source gene, THYM (N = 120) [1]: C (>=5% of tumors above the cutoff, but <20%) | Target coverage, over-expression category of source gene, THCA (N = 513) [1]: C (>=5% of tumors above the cutoff, but <20%) | Target coverage, over-expression category of source gene, UCS (N = 57) [1]: C (>=5% of tumors above the cutoff, but <20%)

180: peptide found in OXTR (gene looked up) (KYLQVVGMF; listed as Homo sapiens) [compound 180]
Target coverage, over-expression category of source gene, SARC (N = 263) [1]: C (>=5% of tumors above the cutoff, but <20%) | Target coverage, over-expression category of source gene, STAD (N = 415) [1]: C (>=5% of tumors above the cutoff, but <20%) | Target coverage, over-expression category of source gene, TGCT (N = 156) [1]: C (>=5% of tumors above the cutoff, but <20%) | Target coverage, over-expression category of source gene, THYM (N = 120) [1]: C (>=5% of tumors above the cutoff, but <20%) | Target coverage, over-expression category of source gene, UCS (N = 57) [1]: C (>=5% of tumors above the cutoff, but <20%) | Target coverage, over-expression category of source gene, UCEC (N = 546) [1]: C (>=5% of tumors above the cutoff, but <20%)

342: peptide found in APOBEC3B (gene looked up) (NYAFLHRTL; listed as Homo sapiens) [compound 342]
Target coverage, over-expression category of source gene, UCEC (N = 546) [1]: C (>=5% of tumors above the cutoff, but <20%)

164: peptide found in IL4I1 (gene looked up) (HYVPATKVF; listed as Homo sapiens) [compound 164]
Target coverage, over-expression category of source gene, TGCT (N = 156) [1]: A (>=50% of tumors above the cutoff) | Target coverage, over-expression category of source gene, THYM (N = 120) [1]: C (>=5% of tumors above the cutoff, but <20%) | Target coverage, over-expression category of source gene, THCA (N = 513) [1]: C (>=5% of tumors above the cutoff, but <20%) | Target coverage, over-expression category of source gene, UCEC (N = 546) [1]: A (>=50% of tumors above the cutoff)

317: peptide found in SIAH1 (gene looked up) (VFDTSIAQLF; listed as Homo sapiens) [compound 317]
Target coverage, over-expression category of source gene, UVM (N = 80) [1]: C (>=5% of tumors above the cutoff, but <20%)

403: peptide found in MMP12 (gene looked up) (TYKYVDINTF; listed as Homo sapiens) [compound 403]
Target coverage, over-expression category of source gene, STAD: B (>=20% of tumors above the cutoff, but <50%) | Target coverage, over-expression category of source gene, TGCT: B (>=20% of tumors above the cutoff, but <50%)

360: peptide found in PSMA7 (gene looked up) (VFSPDGHLF; listed as Homo sapiens) [compound 360]
Target coverage, over-expression category of source gene, SARC: C (>=5% of tumors above the cutoff, but <20%) | Target coverage, over-expression category of source gene, SKCM: C (>=5% of tumors above the cutoff, but <20%) | Target coverage, over-expression category of source gene, UCS: B (>=20% of tumors above the cutoff, but <50%)

130: peptide found in MOB1A (gene looked up) (VYAHIYHQHF; listed as Homo sapiens) [compound 130]
Target coverage, over-expression category of source gene, STAD (N = 415) [1]: C (>=5% of tumors above the cutoff, but <20%)

377: peptide found in RPTOR (gene looked up) (QYTPHSHQF; listed as Homo sapiens) [compound 377]
Target coverage, over-expression category of source gene, SARC: C (>=5% of tumors above the cutoff, but <20%)

396: peptide found in GRIK3 (gene looked up) (YYHFIFTTL; listed as Homo sapiens) [compound 396]
Target coverage, over-expression category of source gene, SARC: C (>=5% of tumors above the cutoff, but <20%) | Target coverage, over-expression category of source gene, SKCM: C (>=5% of tumors above the cutoff, but <20%) | Target coverage, over-expression category of source gene, UVM: C (>=5% of tumors above the cutoff, but <20%)

100: peptide found in KIF20A (gene looked up) (VYIESRIGTSTSF; listed as Homo sapiens) [compound 100]
Target coverage, over-expression category of source gene, TGCT (N = 156) [1]: A (>=50% of tumors above the cutoff) | Target coverage, over-expression category of source gene, UCS (N = 57) [1]: A (>=50% of tumors above the cutoff)

413: peptide found in MST1R (gene looked up) (NYLLYVSNF; listed as Homo sapiens) [compound 413]
Target coverage, over-expression category of source gene, STAD: C (>=5% of tumors above the cutoff, but <20%)

145: peptide found in CCR8 (gene looked up) (VYALKVRTI; listed as Homo sapiens) [compound 145]
Target coverage, over-expression category of source gene, STAD (N = 415) [1]: C (>=5% of tumors above the cutoff, but <20%) | Target coverage, over-expression category of source gene, TGCT (N = 156) [1]: C (>=5% of tumors above the cutoff, but <20%)

320: peptide found in AURKA (gene looked up) (KFILALKVLF; listed as Homo sapiens) [compound 320]
Target coverage, over-expression category of source gene, TGCT (N = 156) [1]: A (>=50% of tumors above the cutoff) | Target coverage, over-expression category of source gene, THYM (N = 120) [1]: C (>=5% of tumors above the cutoff, but <20%) | Target coverage, over-expression category of source gene, UCS (N = 57) [1]: A (>=50% of tumors above the cutoff) | Target coverage, over-expression category of source gene, UCEC (N = 546) [1]: C (>=5% of tumors above the cutoff, but <20%)

399: peptide found in MET (gene looked up) (SYIDVLPEF; listed as Homo sapiens) [compound 399]
Target coverage, over-expression category of source gene, SKCM: C (>=5% of tumors above the cutoff, but <20%) | Target coverage, over-expression category of source gene, STAD: C (>=5% of tumors above the cutoff, but <20%) | Target coverage, over-expression category of source gene, THCA (Thyroid carcinoma (N = 513)): A (>=50% of tumors above the cutoff) | Target coverage, over-expression category of source gene, UVM: B (>=20% of tumors above the cutoff, but <50%)

174: peptide found in MMP13 (gene looked up) (VYEKNGYIYF; listed as Homo sapiens) [compound 174]
Target coverage, over-expression category of source gene, STAD (N = 415) [1]: C (>=5% of tumors above the cutoff, but <20%) | Target coverage, over-expression category of source gene, TGCT (N = 156) [1]: C (>=5% of tumors above the cutoff, but <20%) | Target coverage, over-expression category of source gene, THYM (N = 120) [1]: C (>=5% of tumors above the cutoff, but <20%) | Target coverage, over-expression category of source gene, THCA (N = 513) [1]: C (>=5% of tumors above the cutoff, but <20%) | Target coverage, over-expression category of source gene, UCS (N = 57) [1]: C (>=5% of tumors above the cutoff, but <20%)

350: peptide found in GTPBP10 (gene looked up) (KYGNFIDKL; listed as Homo sapiens) [compound 350]
Target coverage, over-expression category of source gene, STAD (N = 415) [1]: C (>=5% of tumors above the cutoff, but <20%) | Target coverage, over-expression category of source gene, TGCT (N = 156) [1]: C (>=5% of tumors above the cutoff, but <20%)
